These are yes or no findings as the source states them, for the method shown. Some results given as binding are weak or reduced against the parent protein; the word gives no strength.
How the values were obtained:
Assay in all cases: flow cytometry on RBCs
mouse CD47 = biological target: T1, mouse CD47 (mouse, UniProt Q61735 19-303)
T1 construct: whole, on cells; also called CD47 on mouse red blood cells
T1 sequence (looked up): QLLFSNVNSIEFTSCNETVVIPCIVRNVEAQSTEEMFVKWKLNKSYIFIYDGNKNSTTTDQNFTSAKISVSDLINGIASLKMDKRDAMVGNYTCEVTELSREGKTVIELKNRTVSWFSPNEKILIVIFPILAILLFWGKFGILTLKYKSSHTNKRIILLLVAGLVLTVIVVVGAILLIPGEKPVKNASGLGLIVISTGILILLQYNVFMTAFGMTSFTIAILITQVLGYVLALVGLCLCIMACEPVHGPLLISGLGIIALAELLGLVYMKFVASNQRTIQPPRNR

Sequences of proteins named here, by UniProt entry; tags and fusion partners are left off. Residues count along the entry.
UniProt Q08722, residues 19-323: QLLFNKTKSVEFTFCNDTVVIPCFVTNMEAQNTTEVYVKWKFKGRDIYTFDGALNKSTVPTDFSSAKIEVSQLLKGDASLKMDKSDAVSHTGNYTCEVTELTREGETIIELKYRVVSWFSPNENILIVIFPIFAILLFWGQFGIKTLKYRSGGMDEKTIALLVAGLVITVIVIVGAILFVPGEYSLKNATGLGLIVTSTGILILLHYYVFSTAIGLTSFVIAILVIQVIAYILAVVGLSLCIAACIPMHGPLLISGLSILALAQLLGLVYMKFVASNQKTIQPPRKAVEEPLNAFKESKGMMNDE

human CD47 = biological target: T2, human CD47 (human, UniProt Q08722 19-323)
T2 construct: whole, on cells; also called CD47 on human red blood cells

pig CD47 = biological target: T3, pig CD47 (pig, UniProt Q9GKE8 19-303)
T3 construct: whole, on cells; also called CD47 on pig red blood cells
T3 sequence (looked up): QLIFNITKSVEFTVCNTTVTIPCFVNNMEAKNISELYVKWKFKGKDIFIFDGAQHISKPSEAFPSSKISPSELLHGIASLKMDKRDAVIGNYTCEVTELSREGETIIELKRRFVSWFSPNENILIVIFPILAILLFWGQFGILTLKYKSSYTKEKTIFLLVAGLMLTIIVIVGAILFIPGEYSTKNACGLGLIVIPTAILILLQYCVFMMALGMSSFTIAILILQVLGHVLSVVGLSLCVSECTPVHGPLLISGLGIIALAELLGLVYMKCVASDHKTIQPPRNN

rat CD47 = biological target: T4, rat CD47 (rat, UniProt P97829 19-303)
T4 construct: whole, on cells; also called CD47 on rat red blood cells
T4 sequence (looked up): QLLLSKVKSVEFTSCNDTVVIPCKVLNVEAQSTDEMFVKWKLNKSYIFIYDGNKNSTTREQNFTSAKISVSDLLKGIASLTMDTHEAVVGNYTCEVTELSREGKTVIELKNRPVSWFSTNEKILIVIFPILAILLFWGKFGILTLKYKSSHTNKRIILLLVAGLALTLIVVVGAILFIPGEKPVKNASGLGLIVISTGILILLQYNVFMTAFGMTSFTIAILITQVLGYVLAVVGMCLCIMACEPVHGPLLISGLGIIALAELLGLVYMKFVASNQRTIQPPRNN

Measured: binding

B1: pVxK7b-037-hum05-LC/pVxK7b-037-hum05-HC (antibody, human IgG1, V domains shown)
VH: QVQLQESGPGLVKPSQTLSLTCTVSGYTFTNYYVFWVRQAPGKGLEWVSDINPVNGDTNFNEKFKNRVTISVDTSKNQFSLKLSSVTAADTAVYYCARGGYTMDYWGQG
VL: DIVMTQTPLSLPVTPGEPASISCRSSQSLVHSNGNTYLHWYLQKPGQSPQLLIYKVSYRFSGVPDRFSGSGSGTDFTLKISRVEAEDVGVYYCSQNTHVPRTFGQG
notes: Full-length human IgG1/kappa in CHO supernatant; Variable entries end within framework 4 (...FGQG / ...WGQG); also called Clone 5
binds: all assays above

B2: pVxK7b-037-hum10-LC/pVxK7b-037-hum10-HC (antibody, human IgG1, V domains shown)
VH: QVQLQESGPGLVKPSQTLSLTCTVSGYTFTNYYVFWVRQARGQRLEWIGDINPVNGDTNFNEKFKNRLTISKDTSKNQVVLTMTNMDPVDTATYYCARGGYTMDYWGQG
VL: B1 VL
notes: Full-length human IgG1/kappa in CHO supernatant; Variable entries end within framework 4 (...FGQG / ...WGQG); also called Clone 10
binds: all assays above

B3: pVxK7b-037-hum11-LC/pVxK7b-037-hum11-HC (antibody, human IgG1, V domains shown)
VH: QVQLQESGPGLVKPGATVKISCKVSGYTFTNYYVFWVRQARGQRLEWIGDINPVNGDTNFNEKFKNRVTITADKSTSTAYMELSSLRSEDTAVYYCARGGYTMDYWGQG
VL: EIVLTQSPATLSVSPGERATLSCRSSQSLVHSNGNTYLHWYQQKPGQAPRLLIYKVSYRFSGVPSRFSGSGSGTDFTFTISSLEAEDAATYYCSQNTHVPRTFGQG
notes: Full-length human IgG1/kappa in CHO supernatant; Variable entries end within framework 4 (...FGQG / ...WGQG); also called Clone 11
binds: all assays above

B4: pVxK7b-037-hum22-LC/pVxK7b-037-hum22-HC (antibody, human IgG1, V domains shown)
VH: B2 VH
VL: B3 VL
notes: Full-length human IgG1/kappa in CHO supernatant; Variable entries end within framework 4 (...FGQG / ...WGQG); also called Clone 22
binds: all assays above

— patent publication US20140161799A1 (ARCH ONCOLOGY, published 2014)
